Results are given in words; binding and its absence hold for the method and conditions named. Where a sequence is shown, tags or fusion partners need not be part of it.
Biological target: T1, Phaeodactylum tricornutum cyclin-dependent kinase A2 (CDKA2), GAL4 DNA-binding domain fusion (bait) (Phaeodactylum tricornutum) (UniProt B7GDW6)
T1 sequence: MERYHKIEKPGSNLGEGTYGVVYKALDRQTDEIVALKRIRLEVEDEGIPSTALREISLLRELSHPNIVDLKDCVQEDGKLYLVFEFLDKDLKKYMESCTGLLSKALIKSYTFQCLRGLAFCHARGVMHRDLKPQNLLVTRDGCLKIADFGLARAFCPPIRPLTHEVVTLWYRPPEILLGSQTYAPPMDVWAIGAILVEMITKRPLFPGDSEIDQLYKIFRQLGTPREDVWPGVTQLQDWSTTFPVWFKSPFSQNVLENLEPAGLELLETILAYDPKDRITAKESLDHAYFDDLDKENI
Assay: two-hybrid; pairwise Y2H co-transformation of bait (DBD) and prey (AD) plasmids in yeast PJ694-alpha; growth on medium lacking Leu, Trp and His and X-Gal (LacZ) test; three independent colonies

B1: dsCYC2, prey (AD) fusion (protein, UniProt B7FX62 1-349)
chain: MMKQQHSQQEDQIFDLLGVMIRQERTRYRVVNYLQREMVYECQQQQSQYVVEACASITNNQYAVKKSQSSTSLRDVQGDVGNSSPRSARTTSGPLRIESTASPVSDRAVQFSFWRQQMFDWACMVTDCFSIDREVVAASFNLLDRYVARELSSHSSSTCPDDYSPALVSPISREDFQLFSMTCLYITVKILEPYPRKLSLEALVDMSRGFYTPDDIAVTEREIMTALSWHLHPPTAIGFSRMYWSLLASTDATEPSSAVQTTCATLTELAVANAEFIDSPPSLVGLAATVLAYRLPANTNAHDTDQNGCSAAVHEAQARLLLAKLAPLVEPQAQQFHAIYTQLEALYGN
Q: How did the binding turn out when B1 was run?
A: no binding
